# Data: the supplement of paper PMC11006884
# The chains behind the UniProt entries cited, without tags or fusion partners. Where a name states a change or a piece, a line headed by the entry shows the natural chain unless it says otherwise.
# UniProt O75369, whole entry, looked up: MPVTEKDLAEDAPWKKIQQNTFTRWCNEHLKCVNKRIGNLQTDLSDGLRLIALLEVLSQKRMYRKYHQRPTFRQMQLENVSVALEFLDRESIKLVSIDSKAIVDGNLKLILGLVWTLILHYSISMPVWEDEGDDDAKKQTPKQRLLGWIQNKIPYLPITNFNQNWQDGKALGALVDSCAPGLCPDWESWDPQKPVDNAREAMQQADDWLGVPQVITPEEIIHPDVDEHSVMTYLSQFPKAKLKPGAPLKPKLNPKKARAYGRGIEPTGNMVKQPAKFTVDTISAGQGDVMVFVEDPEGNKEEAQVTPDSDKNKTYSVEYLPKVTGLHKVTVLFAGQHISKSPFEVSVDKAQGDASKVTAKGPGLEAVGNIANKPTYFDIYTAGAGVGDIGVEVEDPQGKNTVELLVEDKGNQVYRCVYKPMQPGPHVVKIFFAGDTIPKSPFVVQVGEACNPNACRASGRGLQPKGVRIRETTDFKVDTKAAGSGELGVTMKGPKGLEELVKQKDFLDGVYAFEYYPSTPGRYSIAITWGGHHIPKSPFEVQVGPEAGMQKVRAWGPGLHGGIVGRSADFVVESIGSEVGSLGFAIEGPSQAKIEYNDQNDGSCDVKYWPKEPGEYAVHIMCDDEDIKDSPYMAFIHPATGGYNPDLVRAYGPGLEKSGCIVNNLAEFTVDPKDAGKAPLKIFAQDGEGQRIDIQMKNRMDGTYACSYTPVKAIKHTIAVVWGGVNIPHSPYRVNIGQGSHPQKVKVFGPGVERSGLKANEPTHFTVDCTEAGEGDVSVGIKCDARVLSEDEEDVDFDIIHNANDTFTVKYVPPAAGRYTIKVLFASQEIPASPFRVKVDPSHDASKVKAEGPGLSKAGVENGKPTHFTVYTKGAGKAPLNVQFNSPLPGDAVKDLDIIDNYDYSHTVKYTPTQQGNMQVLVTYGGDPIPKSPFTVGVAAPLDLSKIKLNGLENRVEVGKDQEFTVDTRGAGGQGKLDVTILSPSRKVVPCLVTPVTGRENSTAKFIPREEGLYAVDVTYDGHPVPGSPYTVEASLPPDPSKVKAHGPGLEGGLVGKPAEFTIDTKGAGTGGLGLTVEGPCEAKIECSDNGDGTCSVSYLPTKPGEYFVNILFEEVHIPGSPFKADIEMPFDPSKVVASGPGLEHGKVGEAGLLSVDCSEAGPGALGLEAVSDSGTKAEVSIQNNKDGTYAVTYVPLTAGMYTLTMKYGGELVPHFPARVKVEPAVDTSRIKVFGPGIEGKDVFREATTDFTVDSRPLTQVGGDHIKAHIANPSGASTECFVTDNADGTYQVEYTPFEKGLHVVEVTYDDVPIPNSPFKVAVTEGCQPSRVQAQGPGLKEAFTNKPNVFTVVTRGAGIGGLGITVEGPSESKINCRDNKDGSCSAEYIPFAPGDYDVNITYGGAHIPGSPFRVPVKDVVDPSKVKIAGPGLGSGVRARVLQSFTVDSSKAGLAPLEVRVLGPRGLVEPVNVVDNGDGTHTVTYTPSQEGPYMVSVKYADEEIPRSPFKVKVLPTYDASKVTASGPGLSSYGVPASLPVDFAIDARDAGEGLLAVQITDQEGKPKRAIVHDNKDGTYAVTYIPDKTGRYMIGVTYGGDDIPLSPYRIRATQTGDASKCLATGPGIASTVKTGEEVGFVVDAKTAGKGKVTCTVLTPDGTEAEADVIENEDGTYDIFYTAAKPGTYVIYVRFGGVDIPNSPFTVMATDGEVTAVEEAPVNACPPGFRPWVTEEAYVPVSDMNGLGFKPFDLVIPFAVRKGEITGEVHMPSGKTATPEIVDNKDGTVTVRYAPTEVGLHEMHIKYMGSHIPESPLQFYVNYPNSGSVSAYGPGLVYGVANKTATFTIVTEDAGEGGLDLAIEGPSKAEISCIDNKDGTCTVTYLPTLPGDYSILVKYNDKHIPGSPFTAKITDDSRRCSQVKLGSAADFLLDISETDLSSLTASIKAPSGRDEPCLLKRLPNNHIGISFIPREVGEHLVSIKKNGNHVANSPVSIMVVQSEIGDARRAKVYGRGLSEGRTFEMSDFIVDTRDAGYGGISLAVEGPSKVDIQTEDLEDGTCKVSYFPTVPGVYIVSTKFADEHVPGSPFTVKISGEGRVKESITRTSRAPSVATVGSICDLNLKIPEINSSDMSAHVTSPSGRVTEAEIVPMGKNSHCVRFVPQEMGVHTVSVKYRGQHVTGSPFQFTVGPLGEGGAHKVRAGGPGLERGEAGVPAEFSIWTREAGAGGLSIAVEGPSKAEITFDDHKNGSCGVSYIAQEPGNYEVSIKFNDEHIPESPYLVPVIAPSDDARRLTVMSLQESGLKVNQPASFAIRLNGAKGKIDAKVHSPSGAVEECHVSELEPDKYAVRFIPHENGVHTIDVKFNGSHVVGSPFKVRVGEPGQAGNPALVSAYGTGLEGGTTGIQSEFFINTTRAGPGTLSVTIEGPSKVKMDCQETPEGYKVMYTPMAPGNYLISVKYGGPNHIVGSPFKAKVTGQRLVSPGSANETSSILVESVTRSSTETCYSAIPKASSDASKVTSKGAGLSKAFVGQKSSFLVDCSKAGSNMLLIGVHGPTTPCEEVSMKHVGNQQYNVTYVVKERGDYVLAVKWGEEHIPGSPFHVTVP
# UniProt O75153: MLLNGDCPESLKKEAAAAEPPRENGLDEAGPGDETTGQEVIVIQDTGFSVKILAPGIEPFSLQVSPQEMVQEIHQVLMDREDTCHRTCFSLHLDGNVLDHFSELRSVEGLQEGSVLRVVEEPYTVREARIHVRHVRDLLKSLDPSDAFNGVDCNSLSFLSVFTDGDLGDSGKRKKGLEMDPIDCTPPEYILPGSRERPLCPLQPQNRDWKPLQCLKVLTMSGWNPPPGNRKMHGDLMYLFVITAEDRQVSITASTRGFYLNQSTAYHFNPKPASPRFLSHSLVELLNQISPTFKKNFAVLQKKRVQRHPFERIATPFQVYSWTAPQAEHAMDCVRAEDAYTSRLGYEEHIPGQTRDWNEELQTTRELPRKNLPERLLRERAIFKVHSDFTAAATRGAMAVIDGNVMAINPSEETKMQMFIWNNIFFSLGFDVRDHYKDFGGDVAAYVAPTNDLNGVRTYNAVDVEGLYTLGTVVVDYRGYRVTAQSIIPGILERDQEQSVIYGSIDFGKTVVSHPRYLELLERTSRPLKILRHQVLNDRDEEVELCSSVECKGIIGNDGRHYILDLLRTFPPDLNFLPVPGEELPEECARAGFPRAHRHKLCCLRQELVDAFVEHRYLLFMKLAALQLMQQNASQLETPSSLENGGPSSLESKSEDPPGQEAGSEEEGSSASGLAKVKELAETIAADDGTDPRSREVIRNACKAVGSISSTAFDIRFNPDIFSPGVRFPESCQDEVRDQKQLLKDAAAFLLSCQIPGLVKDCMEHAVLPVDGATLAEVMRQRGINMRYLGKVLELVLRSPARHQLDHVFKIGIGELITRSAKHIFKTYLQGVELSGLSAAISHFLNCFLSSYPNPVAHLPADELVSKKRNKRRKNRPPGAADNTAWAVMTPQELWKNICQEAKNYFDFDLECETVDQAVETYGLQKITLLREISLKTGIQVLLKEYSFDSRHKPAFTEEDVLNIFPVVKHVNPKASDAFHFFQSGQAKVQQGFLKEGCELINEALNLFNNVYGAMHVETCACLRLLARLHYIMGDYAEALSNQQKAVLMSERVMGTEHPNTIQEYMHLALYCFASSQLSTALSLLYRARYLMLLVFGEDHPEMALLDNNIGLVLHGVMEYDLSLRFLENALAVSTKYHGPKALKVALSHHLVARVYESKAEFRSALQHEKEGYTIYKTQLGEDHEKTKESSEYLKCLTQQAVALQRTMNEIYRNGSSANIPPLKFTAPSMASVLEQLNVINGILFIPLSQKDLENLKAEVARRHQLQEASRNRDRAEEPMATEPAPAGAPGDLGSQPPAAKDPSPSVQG
# UniProt O60610, whole entry, looked up: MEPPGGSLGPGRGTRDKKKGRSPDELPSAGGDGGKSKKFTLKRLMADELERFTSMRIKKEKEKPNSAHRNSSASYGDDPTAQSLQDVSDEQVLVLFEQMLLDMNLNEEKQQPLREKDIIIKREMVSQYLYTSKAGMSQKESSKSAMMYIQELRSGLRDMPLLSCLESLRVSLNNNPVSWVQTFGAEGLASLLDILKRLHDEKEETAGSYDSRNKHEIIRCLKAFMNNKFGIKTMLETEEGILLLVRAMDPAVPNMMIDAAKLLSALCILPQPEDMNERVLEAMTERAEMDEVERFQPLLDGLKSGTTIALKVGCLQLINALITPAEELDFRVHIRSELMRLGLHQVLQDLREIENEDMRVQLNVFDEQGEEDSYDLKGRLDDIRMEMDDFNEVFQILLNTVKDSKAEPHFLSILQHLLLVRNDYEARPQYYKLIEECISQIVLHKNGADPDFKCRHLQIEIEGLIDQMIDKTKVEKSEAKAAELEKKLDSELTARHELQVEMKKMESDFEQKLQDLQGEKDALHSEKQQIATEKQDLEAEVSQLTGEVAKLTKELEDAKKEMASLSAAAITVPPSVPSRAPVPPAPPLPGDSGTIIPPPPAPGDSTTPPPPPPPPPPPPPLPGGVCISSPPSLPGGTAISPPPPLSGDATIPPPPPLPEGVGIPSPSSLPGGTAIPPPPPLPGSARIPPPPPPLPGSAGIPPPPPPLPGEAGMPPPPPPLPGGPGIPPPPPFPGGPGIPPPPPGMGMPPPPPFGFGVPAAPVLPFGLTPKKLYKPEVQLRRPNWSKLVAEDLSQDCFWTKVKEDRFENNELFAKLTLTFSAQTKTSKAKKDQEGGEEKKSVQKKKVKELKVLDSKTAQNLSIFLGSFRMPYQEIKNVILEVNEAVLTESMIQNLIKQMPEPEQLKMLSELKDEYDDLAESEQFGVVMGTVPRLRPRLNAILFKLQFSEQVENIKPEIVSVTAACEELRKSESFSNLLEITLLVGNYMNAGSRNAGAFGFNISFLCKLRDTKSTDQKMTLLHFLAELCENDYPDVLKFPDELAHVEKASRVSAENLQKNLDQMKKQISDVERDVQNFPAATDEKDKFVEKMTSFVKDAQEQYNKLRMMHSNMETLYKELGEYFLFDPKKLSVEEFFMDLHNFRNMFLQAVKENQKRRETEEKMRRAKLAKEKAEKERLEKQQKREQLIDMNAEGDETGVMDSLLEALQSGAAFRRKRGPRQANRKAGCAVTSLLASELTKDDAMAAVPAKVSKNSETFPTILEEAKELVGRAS
# UniProt O94761: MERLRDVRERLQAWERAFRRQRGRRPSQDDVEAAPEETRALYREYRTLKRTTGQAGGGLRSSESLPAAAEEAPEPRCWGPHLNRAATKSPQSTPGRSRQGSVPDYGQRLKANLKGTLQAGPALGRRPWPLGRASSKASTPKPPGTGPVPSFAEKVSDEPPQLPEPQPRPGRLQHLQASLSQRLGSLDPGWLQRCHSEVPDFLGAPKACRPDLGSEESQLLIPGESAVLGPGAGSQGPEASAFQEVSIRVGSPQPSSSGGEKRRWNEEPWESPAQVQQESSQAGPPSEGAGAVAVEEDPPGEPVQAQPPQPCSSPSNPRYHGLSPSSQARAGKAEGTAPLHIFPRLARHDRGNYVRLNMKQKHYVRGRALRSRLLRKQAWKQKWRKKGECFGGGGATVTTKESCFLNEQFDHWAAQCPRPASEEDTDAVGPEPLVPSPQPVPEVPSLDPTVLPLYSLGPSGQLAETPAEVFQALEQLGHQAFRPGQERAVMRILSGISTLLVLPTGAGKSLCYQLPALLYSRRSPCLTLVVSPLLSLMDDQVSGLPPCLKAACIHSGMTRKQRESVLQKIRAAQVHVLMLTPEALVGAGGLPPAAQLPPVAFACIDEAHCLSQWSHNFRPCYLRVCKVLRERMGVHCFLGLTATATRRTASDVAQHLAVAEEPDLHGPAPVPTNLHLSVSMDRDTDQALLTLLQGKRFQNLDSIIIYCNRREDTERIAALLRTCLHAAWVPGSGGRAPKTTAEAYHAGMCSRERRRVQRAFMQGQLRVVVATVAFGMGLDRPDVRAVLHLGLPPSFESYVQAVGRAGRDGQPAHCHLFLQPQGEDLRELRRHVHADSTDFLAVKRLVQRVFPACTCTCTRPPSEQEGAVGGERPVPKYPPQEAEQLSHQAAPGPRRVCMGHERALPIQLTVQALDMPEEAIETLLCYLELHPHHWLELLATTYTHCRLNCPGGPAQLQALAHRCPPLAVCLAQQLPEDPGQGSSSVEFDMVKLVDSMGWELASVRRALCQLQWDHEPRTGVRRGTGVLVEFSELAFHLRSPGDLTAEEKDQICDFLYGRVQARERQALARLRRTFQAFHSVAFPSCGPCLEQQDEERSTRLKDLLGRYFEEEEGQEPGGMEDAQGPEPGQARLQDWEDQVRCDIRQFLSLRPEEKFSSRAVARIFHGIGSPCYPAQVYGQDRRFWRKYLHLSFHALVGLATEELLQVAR
# UniProt O43583: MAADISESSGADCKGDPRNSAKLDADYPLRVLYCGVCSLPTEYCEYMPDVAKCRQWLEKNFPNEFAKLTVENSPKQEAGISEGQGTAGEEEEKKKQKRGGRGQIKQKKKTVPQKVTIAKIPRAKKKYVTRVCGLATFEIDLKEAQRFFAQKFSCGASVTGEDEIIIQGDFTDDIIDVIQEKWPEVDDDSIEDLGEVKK
# Shown are results outside the selection of targets with a hit, which stands elsewhere. The data scatter; read single values as rough. This is a selection; strong and weak results do not stand in their true shares.
# Compound: COC(=O)/C=C/c1ccccc1 [methyl cinnamate]
# Experiment: log2 ratio of iodoacetamide-alkyne labeling of the cysteine site, DMSO over compound (competition); higher = stronger covalent engagement of the cysteine by the compound, active = 1 or more
# Conditions: 500 µM; treatment time 1 h; system: HEK293T cell lysate
# Summary of the method: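 After 1 h at ambient temperature with vehicle or electrophile (500 µM), HEK293T lysate (2 mg/mL) was labelled for 1 h with iodoacetamide alkyne and clicked to sCIP-TMT reagents. Pooled samples were trypsin-digested overnight at 37 °C, streptavidin-enriched, acid-eluted and analysed by Orbitrap Eclipse LC-MS/MS with FAIMS, then quantified in FragPipe over three replicates with duplicate channels. A cysteine's log2 competition ratio is its mean control-channel over mean compound-channel reporter intensity. Cysteines quantified in only one replicate were not included.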
row,Target,log2 ratio of iodoacetamide-alkyne labeling
1,MGRN1 C428 (UniProt O60291),inactive: -0.118
2,PSMD10 C4 (UniProt O75832),inactive: -0.142
3,FLNB C2115 (UniProt O75369),inactive: 0.201
4,GLRX3 C46 (UniProt O76003),inactive: -0.415
5,SNRNP200 C1278 (UniProt O75643),inactive: 0.0377
6,SURF6 C19 (UniProt O75683),inactive: 0.583
7,UniProt O75879_C228,inactive: -0.21
8,NBN C487 (UniProt O60934),inactive: 0.349
9,FLNB C2248 (UniProt O75369),inactive: -0.613
10,UniProt O75153_C184,inactive: 0.123
11,TADA2A C20 (UniProt O75478),inactive: 0.0234
12,UniProt O75153_C88,inactive: -0.0483
13,UniProt O60610_C796,inactive: -0.0149
14,WIPF1 C446 (UniProt O43516),inactive: 0.281
15,AQR C681 (UniProt O60306),inactive: 0.144
16,CTNND1 C618 (UniProt O60716),inactive: 0.283
17,MAST3 C541 (UniProt O60307),inactive: 0.423
18,NPM3 C70 (UniProt O75607),inactive: 0.112
19,UniProt O43913_C10,inactive: 0.189
20,UniProt O75528_C7,inactive: 0.315
21,SNRNP200 C1580 (UniProt O75643),inactive: 0.0837

row,Target,log2 ratio of iodoacetamide-alkyne labeling
1,HTATSF1 C462 (UniProt O43719),inactive: 0.449
2,ASNA1 C205 (UniProt O43681),inactive: -0.0495
3,ROCK2 C804 (UniProt O75116),inactive: 0.271
4,TACC1 C174 (UniProt O75410),inactive: 0.242
5,UniProt O60664_C60,inactive: 0.305
6,EIF3G C139 (UniProt O75821),inactive: 0.337
7,DIAPH2 C484 (UniProt O60879),inactive: 0.0901
8,LRCH4 C134 (UniProt O75427),inactive: 0.0978
9,UniProt O75170_C762,inactive: -0.115
10,SRGAP2 C820 (UniProt O75044),inactive: 0.212
11,RSL1D1 C96 (UniProt O76021),inactive: 0.346
12,ZC3H11A C636 (UniProt O75152),inactive: 0.471
13,MCM3AP C274 (UniProt O60318),inactive: 0.0592
14,RECQL4 C208 (UniProt O94761),inactive: 0.727
15,UniProt O43432_C461,inactive: 0.214
16,FLNB C1280 (UniProt O75369),inactive: -0.203
17,BUB3 C129 (UniProt O43684),inactive: 0.0956
18,NUP155 C704 (UniProt O75694),inactive: 0.225
19,ROCK2 C649 (UniProt O75116),inactive: 0.4
20,AQR C28 (UniProt O60306),inactive: -0.00957
21,PAPSS1 C212 (UniProt O43252),inactive: -0.0115

row,Target,log2 ratio of iodoacetamide-alkyne labeling
1,SART1 C560 (UniProt O43290),inactive: 0.341
2,UniProt O75153_C1196,inactive: 0.355
3,SF3B1 C933 (UniProt O75533),inactive: 0.183
4,UniProt O60232_C73,inactive: 0.305
5,UniProt O43776_C537,inactive: 0.153
6,AKAP8 C631 (UniProt O43823),inactive: 0.0512
7,UniProt O43679_C207,inactive: 0.0988
8,UniProt O60610_C314,inactive: -0.582
9,HTATSF1 C480 (UniProt O43719),inactive: 0.254
10,TBC1D4 C6 (UniProt O60343),inactive: -0.00232
11,CLPX C538 (UniProt O76031),inactive: -0.123
12,OPA1 C375 (UniProt O60313),inactive: 0.191
13,ZFC3H1 C220 (UniProt O60293),inactive: -0.292
14,DENR C13 (UniProt O43583),inactive: 0.272
15,TIPRL C14 (UniProt O75663),inactive: 0.185
16,UniProt O75521_C282,inactive: 0.0485
17,NDUFS7 C183 (UniProt O75251),inactive: -0.198
18,UniProt O75947_C101,inactive: 0.152
19,DENR C132 (UniProt O43583),inactive: 0.226

# Laid out differently: results already given
row	Target	log2 ratio of iodoacetamide-alkyne labeling
1	SART1 C560 (UniProt O43290)	inactive: 0.341
2	UniProt O75153_C1196	inactive: 0.355
4	UniProt O60232_C73	inactive: 0.305
6	AKAP8 C631 (UniProt O43823)	inactive: 0.0512
7	UniProt O43679_C207	inactive: 0.0988
8	UniProt O60610_C314	inactive: -0.582
11	CLPX C538 (UniProt O76031)	inactive: -0.123
12	OPA1 C375 (UniProt O60313)	inactive: 0.191
14	DENR C13 (UniProt O43583)	inactive: 0.272
15	TIPRL C14 (UniProt O75663)	inactive: 0.185
17	NDUFS7 C183 (UniProt O75251)	inactive: -0.198
18	UniProt O75947_C101	inactive: 0.152
19	DENR C132 (UniProt O43583)	inactive: 0.226
